The results in this text go back to the supplement of paper PMC12819154, “High-throughput peptide-centric local stability assay extends protein–ligand identification to membrane proteins, tissues and bacteria” (Nature Structural & Molecular Biology, 2025).

Amino acid sequences for entries named in this document (tags omitted). A change or cut given only in a name is not applied to a line headed by its entry.
UniProt Q9WU28, whole entry: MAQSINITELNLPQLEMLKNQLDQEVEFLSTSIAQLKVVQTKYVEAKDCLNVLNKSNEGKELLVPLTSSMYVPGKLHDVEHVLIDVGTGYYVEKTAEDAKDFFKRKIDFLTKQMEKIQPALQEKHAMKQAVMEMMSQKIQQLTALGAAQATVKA
UniProt Q9Z1Z2: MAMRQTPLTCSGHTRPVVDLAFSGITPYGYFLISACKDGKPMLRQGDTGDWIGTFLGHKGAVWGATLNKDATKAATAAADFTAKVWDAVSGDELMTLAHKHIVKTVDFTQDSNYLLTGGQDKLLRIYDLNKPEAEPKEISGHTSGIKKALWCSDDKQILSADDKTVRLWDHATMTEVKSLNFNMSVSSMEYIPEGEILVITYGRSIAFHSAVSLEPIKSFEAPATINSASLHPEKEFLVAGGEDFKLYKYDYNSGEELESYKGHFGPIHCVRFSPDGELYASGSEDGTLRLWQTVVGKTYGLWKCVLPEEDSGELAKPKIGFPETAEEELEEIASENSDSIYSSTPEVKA
UniProt Q9R1K9: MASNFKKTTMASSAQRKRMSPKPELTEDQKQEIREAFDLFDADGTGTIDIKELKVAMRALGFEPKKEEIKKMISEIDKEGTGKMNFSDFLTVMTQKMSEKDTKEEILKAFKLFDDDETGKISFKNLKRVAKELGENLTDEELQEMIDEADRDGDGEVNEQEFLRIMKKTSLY
UniProt Q9Z1D1, whole entry: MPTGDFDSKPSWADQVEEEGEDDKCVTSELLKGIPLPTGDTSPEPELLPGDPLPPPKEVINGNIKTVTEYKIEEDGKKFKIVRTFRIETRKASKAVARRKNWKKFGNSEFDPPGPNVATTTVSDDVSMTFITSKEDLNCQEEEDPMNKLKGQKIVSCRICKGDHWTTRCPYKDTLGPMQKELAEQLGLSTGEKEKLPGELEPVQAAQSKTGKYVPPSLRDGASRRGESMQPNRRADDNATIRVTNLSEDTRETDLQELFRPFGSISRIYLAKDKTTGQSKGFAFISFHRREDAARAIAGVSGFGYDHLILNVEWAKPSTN
UniProt Q9WV98: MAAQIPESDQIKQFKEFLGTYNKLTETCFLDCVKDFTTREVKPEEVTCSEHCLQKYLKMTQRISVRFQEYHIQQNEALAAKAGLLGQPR
UniProt Q9WUU7: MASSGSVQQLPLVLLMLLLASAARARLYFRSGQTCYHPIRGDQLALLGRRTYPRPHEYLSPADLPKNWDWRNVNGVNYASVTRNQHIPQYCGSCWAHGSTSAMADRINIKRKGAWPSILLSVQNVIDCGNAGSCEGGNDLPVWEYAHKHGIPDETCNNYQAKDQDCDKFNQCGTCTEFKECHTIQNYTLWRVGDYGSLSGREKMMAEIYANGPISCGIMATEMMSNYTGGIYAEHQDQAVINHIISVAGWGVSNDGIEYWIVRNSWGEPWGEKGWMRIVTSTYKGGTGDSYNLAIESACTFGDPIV
UniProt Q9Z1P6, whole entry: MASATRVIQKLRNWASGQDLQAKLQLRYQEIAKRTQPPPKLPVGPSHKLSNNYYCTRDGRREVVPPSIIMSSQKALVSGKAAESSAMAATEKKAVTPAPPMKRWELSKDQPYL
UniProt Q9WVG9: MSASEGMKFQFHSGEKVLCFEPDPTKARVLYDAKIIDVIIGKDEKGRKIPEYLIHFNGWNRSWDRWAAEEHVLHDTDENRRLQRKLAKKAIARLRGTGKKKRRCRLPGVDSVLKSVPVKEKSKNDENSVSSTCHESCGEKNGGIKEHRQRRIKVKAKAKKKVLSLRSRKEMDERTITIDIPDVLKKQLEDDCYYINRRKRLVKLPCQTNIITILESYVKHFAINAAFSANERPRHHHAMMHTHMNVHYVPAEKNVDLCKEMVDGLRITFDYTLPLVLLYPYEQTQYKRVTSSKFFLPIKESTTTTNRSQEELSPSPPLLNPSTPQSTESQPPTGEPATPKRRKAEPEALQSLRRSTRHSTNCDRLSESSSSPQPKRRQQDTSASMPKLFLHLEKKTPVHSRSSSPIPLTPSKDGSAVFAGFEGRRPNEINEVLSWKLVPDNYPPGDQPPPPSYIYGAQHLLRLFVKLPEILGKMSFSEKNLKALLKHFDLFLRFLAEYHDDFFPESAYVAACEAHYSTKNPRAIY
UniProt Q9QYP6, whole entry: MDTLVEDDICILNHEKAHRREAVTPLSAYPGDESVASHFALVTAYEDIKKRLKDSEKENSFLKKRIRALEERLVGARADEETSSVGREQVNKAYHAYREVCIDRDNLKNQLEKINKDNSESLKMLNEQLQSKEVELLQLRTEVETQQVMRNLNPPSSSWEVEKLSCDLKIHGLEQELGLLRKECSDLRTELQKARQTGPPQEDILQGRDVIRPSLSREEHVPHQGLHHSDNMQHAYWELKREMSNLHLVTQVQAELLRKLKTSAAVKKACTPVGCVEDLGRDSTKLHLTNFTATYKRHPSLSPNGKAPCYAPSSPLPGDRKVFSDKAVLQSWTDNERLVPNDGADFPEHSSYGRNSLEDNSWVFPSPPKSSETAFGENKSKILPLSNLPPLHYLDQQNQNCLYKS
UniProt Q9Z224: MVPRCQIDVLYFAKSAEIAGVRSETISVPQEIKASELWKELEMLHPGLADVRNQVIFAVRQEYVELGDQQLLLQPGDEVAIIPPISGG
UniProt Q9R0Q7: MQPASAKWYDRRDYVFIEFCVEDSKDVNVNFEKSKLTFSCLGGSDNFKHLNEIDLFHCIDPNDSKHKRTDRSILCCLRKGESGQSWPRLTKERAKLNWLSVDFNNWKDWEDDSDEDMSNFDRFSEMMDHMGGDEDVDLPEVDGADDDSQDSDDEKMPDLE
UniProt Q9QZS3: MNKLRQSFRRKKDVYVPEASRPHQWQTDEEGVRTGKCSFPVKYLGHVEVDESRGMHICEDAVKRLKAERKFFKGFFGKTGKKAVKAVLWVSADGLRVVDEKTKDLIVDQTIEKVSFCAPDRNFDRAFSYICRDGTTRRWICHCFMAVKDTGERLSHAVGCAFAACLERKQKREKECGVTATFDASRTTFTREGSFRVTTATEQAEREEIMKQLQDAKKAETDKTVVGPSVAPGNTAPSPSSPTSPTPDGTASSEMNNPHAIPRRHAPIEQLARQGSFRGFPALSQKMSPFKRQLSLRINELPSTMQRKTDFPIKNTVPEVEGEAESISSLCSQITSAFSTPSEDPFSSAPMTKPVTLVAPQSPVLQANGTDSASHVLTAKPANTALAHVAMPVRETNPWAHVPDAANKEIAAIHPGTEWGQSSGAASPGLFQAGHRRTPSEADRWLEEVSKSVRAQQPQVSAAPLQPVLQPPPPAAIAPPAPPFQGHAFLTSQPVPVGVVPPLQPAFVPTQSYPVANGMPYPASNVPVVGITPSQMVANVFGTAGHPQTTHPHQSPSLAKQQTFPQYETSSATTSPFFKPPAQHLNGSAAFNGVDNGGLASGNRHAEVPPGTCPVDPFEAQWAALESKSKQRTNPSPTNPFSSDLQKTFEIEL
UniProt Q9WTP2: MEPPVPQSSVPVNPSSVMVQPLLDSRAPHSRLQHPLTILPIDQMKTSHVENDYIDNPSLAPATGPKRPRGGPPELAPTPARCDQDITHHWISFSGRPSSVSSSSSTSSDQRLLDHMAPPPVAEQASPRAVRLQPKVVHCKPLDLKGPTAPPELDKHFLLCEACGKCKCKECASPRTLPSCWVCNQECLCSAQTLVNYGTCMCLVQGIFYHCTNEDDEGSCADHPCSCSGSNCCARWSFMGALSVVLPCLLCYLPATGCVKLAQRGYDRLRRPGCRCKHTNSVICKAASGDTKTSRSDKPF
UniProt Q9Z0J0: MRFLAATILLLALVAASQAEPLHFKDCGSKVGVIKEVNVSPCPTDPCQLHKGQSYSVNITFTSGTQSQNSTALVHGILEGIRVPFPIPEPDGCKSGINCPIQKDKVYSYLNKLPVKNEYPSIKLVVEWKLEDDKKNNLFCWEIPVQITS
UniProt Q9Z0U1: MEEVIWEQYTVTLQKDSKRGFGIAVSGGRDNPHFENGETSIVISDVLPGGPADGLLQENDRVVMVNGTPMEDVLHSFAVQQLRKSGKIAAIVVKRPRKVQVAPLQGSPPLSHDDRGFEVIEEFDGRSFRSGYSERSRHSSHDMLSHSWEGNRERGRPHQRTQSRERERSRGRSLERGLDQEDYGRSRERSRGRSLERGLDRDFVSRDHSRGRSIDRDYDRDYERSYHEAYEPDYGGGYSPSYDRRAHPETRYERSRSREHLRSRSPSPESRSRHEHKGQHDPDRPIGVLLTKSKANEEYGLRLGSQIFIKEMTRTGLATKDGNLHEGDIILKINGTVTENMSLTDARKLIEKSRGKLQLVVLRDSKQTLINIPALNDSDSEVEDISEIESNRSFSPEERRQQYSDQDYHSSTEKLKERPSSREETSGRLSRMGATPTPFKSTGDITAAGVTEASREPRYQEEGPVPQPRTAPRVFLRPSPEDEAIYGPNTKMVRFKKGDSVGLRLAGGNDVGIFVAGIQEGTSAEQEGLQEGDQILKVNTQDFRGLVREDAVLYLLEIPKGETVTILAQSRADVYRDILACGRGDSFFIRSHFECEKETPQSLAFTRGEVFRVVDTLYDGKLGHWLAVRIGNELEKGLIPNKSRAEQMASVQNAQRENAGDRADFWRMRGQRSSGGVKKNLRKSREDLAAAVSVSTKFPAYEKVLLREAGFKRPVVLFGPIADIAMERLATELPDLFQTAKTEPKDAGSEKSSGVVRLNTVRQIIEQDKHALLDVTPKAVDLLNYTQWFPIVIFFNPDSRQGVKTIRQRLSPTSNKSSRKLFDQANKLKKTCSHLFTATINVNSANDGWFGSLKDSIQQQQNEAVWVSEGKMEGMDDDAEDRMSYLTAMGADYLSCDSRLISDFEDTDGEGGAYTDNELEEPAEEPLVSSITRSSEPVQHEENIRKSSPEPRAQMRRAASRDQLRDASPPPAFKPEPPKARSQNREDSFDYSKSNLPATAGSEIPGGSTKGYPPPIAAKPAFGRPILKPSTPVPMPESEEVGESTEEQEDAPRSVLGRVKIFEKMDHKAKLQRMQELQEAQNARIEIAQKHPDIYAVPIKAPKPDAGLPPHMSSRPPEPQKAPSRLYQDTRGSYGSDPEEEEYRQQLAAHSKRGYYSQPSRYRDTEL
UniProt Q9WUA3: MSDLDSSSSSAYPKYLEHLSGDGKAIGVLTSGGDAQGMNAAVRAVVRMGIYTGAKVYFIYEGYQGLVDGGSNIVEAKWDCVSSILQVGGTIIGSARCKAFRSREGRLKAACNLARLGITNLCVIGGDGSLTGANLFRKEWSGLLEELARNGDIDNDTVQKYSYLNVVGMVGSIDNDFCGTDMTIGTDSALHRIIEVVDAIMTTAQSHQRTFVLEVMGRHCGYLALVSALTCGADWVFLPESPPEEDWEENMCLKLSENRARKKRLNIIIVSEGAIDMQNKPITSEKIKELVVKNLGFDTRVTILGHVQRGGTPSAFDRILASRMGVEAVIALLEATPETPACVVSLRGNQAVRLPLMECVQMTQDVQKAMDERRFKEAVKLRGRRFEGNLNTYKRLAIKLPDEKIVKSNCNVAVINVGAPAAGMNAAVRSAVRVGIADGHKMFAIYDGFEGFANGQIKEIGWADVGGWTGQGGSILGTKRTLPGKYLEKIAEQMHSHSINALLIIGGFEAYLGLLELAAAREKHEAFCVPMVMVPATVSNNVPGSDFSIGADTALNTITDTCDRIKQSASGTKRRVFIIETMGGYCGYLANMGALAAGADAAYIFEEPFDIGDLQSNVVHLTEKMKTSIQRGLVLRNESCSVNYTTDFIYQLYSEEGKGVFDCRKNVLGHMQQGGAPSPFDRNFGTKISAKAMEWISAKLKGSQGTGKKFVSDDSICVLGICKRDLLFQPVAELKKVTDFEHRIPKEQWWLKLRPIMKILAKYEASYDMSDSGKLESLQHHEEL
UniProt Q9Z0F8: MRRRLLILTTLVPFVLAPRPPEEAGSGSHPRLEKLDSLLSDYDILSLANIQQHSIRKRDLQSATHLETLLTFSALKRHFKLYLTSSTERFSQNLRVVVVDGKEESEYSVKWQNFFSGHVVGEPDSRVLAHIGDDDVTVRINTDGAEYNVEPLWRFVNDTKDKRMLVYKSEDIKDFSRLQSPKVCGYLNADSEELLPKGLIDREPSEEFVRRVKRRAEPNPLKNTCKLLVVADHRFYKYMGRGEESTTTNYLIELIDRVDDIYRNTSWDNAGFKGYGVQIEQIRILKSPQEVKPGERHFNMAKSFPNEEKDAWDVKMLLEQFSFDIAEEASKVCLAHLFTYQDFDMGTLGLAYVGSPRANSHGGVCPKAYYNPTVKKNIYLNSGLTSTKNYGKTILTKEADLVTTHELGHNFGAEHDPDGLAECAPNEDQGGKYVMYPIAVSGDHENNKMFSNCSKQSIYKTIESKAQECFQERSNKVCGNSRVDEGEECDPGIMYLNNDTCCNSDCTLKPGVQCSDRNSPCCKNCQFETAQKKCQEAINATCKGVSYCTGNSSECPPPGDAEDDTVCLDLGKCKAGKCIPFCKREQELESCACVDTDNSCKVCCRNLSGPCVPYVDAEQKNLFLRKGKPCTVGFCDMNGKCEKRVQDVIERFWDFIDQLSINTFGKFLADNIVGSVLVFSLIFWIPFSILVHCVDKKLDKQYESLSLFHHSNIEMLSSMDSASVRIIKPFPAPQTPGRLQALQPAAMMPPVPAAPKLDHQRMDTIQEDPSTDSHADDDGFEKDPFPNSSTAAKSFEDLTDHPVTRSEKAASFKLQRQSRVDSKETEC

This is one part of the list. Most entries show no effect beyond the scatter of the controls.

Compound in this test: CN[C@@H]1C[C@H]2O[C@@](C)([C@@H]1OC)n1c3ccccc3c3c4c(c5c6ccccc6n2c5c31)C(=O)NC4 [staurosporine]
Put plainly: log2 fold change of pooled soluble protein (PISA), ligand vs vehicle (log2 ratio); higher = more thermally stabilized. The following applies: ligand concentration: 20 uM; assay format: PISA pool 52.9/55.5/58.6 C.
With UniProt Q9WU28, the “log2 fold change of pooled soluble protein” value (shortened to “log2 fold change”) was 0.0503.

Take UniProt Q9Z2H5: the “log2 fold change” value was 0.0526.

UniProt Q9WV69: the “log2 fold change” value was -0.0939. For UniProt Q9QYI4, the “log2 fold change” value was determined as 0.0513. As for UniProt Q9Z1Z2, the figure is 0.0839. Under UniProt Q9R1K9 stands 0.0411; under UniProt Q9Z1D1, -0.025. Regarding UniProt Q9WV98, the “log2 fold change” value was -0.135. As for UniProt Q9WUU7, the figure is -0.0361; as for UniProt Q9Z1P6, -0.111; as for UniProt Q9WVG9, -0.139. Under UniProt Q9R0H0 stands -0.0121. As for UniProt Q9QYP6, the figure is -0.254. UniProt Q9WV91: the “log2 fold change” value was found to be 0.198. Under UniProt Q9Z224 stands -0.0362.

With UniProt Q9QZ73, the “log2 fold change” value came out at 0.0349. For UniProt Q9R0Q7, the “log2 fold change” value turned out to be 0.0557. Under UniProt Q9QZS3 stands 0.0913; under UniProt Q9QYY9, -0.0465; under UniProt Q9WTP2, -0.0296. Under UniProt Q9Z127 stands -0.0822; under UniProt Q9R1P3, 0.0504. For the target UniProt Q9R099, the “log2 fold change” value is 0.0851. Under UniProt Q9Z2G9 stands 0.107; under UniProt Q9R0A1, 0.137; under UniProt Q9Z2M7, -0.166. Under UniProt Q9QYJ0 stands 0.0568; under UniProt Q9Z2E1, -0.0623.

On to UniProt Q9Z1X4, for which the “log2 fold change” value is -0.0213. As for UniProt Q9Z0J0, the figure is -0.0097. Under UniProt Q9WUA2 stands -0.122.

As for UniProt Q9Z0U1, the “log2 fold change” value is -0.013.

Regarding UniProt Q9Z2K1, the “log2 fold change” value is -0.464.

As to UniProt Q9WUA3, the “log2 fold change” value was -0.0193. Regarding UniProt Q9Z1R2, the “log2 fold change” value is -0.0169. Under UniProt Q9Z0F8 stands 0.284; under UniProt Q9WVG6, 0.237; under UniProt Q9QYR9, -0.00137. As for UniProt Q9Z130, the figure is 0.0833.
